Publication PMC10443802 (JCI Insight, 2023)
Structures can show the parent of a compound that is named as a salt.

System: OATP1B2
Experiment: Untargeted metabolomics of plasma and DRG, WT vs OATP1B2-deficient mice
Type: in vivo, mouse
Details: untargeted metabolomics, WT vs OATP1B2-deficient mice
[1] = supplement sheet "Figure 5B" (volcano plot)
[2] = Figure 5B source data (volcano plot), log2 fold change of metabolite level

CCc1ccc(OS(=O)(=O)O)cc1 [4-ethylphenylsulfate]
Log2FoldChange [1]: 4.103

NC(=O)c1ccc[n+]([C@@H]2O[C@H](COP(=O)([O-])OP(=O)(O)OC[C@H]3O[C@@H](n4cnc5c(N)ncnc54)[C@H](O)[C@@H]3O)[C@@H](O)[C@H]2O)c1 [nicotinamide adenine dinucleotide (NAD+)]
Log2FoldChange (sheet "Figure 5C"): 0.275

Cc1cc2nc3c(=O)[nH]c(=O)nc-3n(C[C@H](O)[C@H](O)[C@H](O)COP(=O)(O)O)c2cc1C [flavin mononucleotide (FMN)]
Log2FoldChange (sheet "Figure 5C"): 1.475

CCCCC/C=C\C/C=C\CCCCCCCC(=O)OCC(O)CO (stereo not shown) [1-linoleoylglycerol (18:2)]
Log2FoldChange (supplement sheet "Figure 5B"): -0.152
Log2FoldChange (sheet "Figure 5C"): 0.3674

Cc1ncc(CO)c(CN)c1O [pyridoxamine]
Log2FoldChange [1]: 0.8237

CC1=C(/C=C/C(C)=C/C=C/C(C)=C/CO)C(C)(C)CCC1 [retinol (Vitamin A)]
Log2FoldChange [1]: 0.5656

CSC[C@H]1O[C@@H](O)[C@H](O)[C@@H]1O [5-methylthioribose**]
Log2FoldChange (supplement sheet "Figure 5B"): -0.1203

CCC=CCC=CCC=CCCCCCC(=O)O [hexadecatrienoate (16:3n3)]
Log2FoldChange (supplement sheet "Figure 5B"): 0.02857
Log2FoldChange (sheet "Figure 5C"): 0.3334

N#Cc1c(O)c(Cl)c(Cl)c(C#N)c1Cl [4-hydroxychlorothalonil]
Log2FoldChange [1]: 1.124

CCCCC/C=C\C/C=C\CCCCCCCC(=O)O[C@H](COC(=O)CCCCCCCCCCCCCCC)COP(=O)(O)OC1C(O)C(O)C(O)C(O)C1O (stereo partly shown) [1-palmitoyl-2-linoleoyl-GPI (16:0/18:2)]
Log2FoldChange [1]: 0.251

O=C(O)CCCC(=O)C(=O)O [2-oxoadipate]
Log2FoldChange (supplement sheet "Figure 5B"): 0

Nc1ccccc1C(=O)O [anthranilate]
Log2FoldChange [1]: 0.3674

CCC/C=C\CCCCCCCC/C=C/[C@@H](O)[C@H](CO)NC(=O)CCCCCCCCCCCCCCCCC [N-stearoyl-sphingadienine (d18:2/18:0)*]
Log2FoldChange (sheet "Figure 5C"): -0.152

O=C(O)CCCCCCCC(=O)O [azelate (C9-DC)]
Log2FoldChange (sheet "Figure 5C"): 0.4005

CCCCCCCC/C=C\CCCCCCCC(=O)OC[C@@H](O)COP(=O)([O-])OCC[N+](C)(C)C [1-oleoyl-GPC (18:1)]
Log2FoldChange [1]: 0.8319
Log2FoldChange (sheet "Figure 5C"): 0.3103

C=CC1=C(C)/C(=C/C2=NC(=C\c3[nH]c(/C=C4\NC(=O)C(C)=C4C=C)c(C)c3CCC(=O)O)/C(CCC(=O)O)=C2C)NC1=O [biliverdin]
Log2FoldChange [1]: 2.0321

CCCCCCCC/C=C\CCCCCCCC(=O)OC[C@H](COP(=O)(O)OC[C@H](N)C(=O)O)OC(=O)CCCCCCC/C=C\CCCCCCCC [1,2-dioleoyl-GPS (18:1/18:1)]
Log2FoldChange (sheet "Figure 5C"): -0.3959

O=C(O)[C@@H]1C[C@@H](O)CN1 [trans-4-hydroxyproline]
Log2FoldChange (supplement sheet "Figure 5B"): -0.1203
Log2FoldChange (sheet "Figure 5C"): -0.1361

CCCCCCCC/C=C\CCCCCCCC(=O)O[C@H](COC(=O)CCCCCCCCCCCCCCC)COP(=O)([O-])OCC[N+](C)(C)C [1-palmitoyl-2-oleoyl-GPC (16:0/18:1)]
Log2FoldChange [1]: 0.3785
Log2FoldChange (sheet "Figure 5C"): -0.1361

CCCCC/C=C\C/C=C\CCCCCCCC(=O)NCCS(=O)(=O)O [N-linoleoyltaurine*]
Log2FoldChange (supplement sheet "Figure 5B"): 0.189

CCCCCCCCCCCCCCCCCC(=O)O[C@H](COC(=O)CCCCCCCCCCCCCCC)COP(=O)([O-])OCC[N+](C)(C)C [1-palmitoyl-2-stearoyl-GPC (16:0/18:0)]
Log2FoldChange (supplement sheet "Figure 5B"): 0.189
Log2FoldChange (sheet "Figure 5C"): -0.3585

CC(O)(CC(=O)O)CC(=O)O [3-hydroxy-3-methylglutarate]
Log2FoldChange (supplement sheet "Figure 5B"): 0.09761

C[C@H](CCC(=O)NCC(=O)O)[C@H]1CC[C@H]2[C@@H]3[C@H](O)C[C@@H]4C[C@H](O)CC[C@]4(C)[C@H]3C[C@H](O)[C@]12C [glycocholate]
Log2FoldChange [1]: 0.3103

Cc1ccc(OS(=O)(=O)O)cc1 [p-cresol sulfate]
Log2FoldChange [1]: 3.216

CC(=O)c1ccc(OS(=O)(=O)O)cc1 [4-acetylphenol sulfate]
Log2FoldChange [2]: -0.1681

CC/C=C\C/C=C\C/C=C\CCCCCCCC(=O)OCC(O)CO (stereo not shown) [1-linolenoylglycerol (18:3)]
Log2FoldChange (supplement sheet "Figure 5B"): -0.1203

CCCC(O)CC(=O)O (stereo not shown) [3-hydroxyhexanoate]
Log2FoldChange (supplement sheet "Figure 5B"): -0.1203
Log2FoldChange (sheet "Figure 5C"): 0.05658

O=C(O)CCc1cccc(O)c1 [3-(3-hydroxyphenyl)propionate]
Log2FoldChange [2]: -1.4344

CC/C=C\C/C=C\C/C=C\C/C=C\C/C=C\CCCCCC(=O)O [docosapentaenoate (n3 DPA; 22:5n3)]
Log2FoldChange [2]: -0.2345
Log2FoldChange (sheet "Figure 5C"): 0.3674

O=C(O)C(O)CO (stereo not shown) [glycerate]
Log2FoldChange (supplement sheet "Figure 5B"): 0.02857
Log2FoldChange (sheet "Figure 5C"): 0.02857

CCCCCCCCCCCCCCCCCC(O)CC(=O)O (stereo not shown) [3-hydroxyarachidate*]
Log2FoldChange (sheet "Figure 5C"): 0.2016

CCCCCCCC/C=C\CCCCCC/C=C\OCC(O)COP(=O)(O)OCCN (stereo not shown) [1-(1-enyl-oleoyl)-GPE (P-18:1)*]
Log2FoldChange [1]: 1.111

O=C(O)[C@H](O)[C@H](O)[C@H](O)CO [ribonate]
Log2FoldChange [2]: -0.2863
Log2FoldChange (sheet "Figure 5C"): 0.3103

O=C(CO)[C@@H](O)[C@H](O)[C@H](O)[C@H](O)CO [sedoheptulose]
Log2FoldChange (sheet "Figure 5C"): 0.08406

CCCCCC/C=C\CCCCCCCC(=O)O[C@H](CC(=O)[O-])C[N+](C)(C)C [palmitoleoylcarnitine (C16:1)*]
Log2FoldChange [1]: 0.7049

CCCCC/C=C\C/C=C\CCCCCCCC(N)=O [linoleamide (18:2n6)]
Log2FoldChange [1]: 0.4436

NCCOP(=O)(O)O [phosphoethanolamine]
Log2FoldChange (supplement sheet "Figure 5B"): 0.2016
Log2FoldChange (sheet "Figure 5C"): 0.111

CCC=CCC=CCC=CCCCCCCCCCCCC(=O)O [docosatrienoate (22:3n3)]
Log2FoldChange (supplement sheet "Figure 5B"): 0.02857
Log2FoldChange (sheet "Figure 5C"): 0.263

CSC[C@H](NC(=O)CC[C@H](N)C(=O)O)C(=O)NCC(=O)O [S-methylglutathione]
Log2FoldChange [1]: 0.251
Log2FoldChange (sheet "Figure 5C"): 0.251

CN(C)CC(=O)O [dimethylglycine]
Log2FoldChange (sheet "Figure 5C"): -0.08927

CC(=O)NC(Cc1cn(C)cn1)C(=O)O (stereo not shown) [N-acetyl-3-methylhistidine*]
Log2FoldChange [1]: 0.3103

CC(C)CCC[C@@H](C)CCC[C@@H](C)CCCC(C)CC(=O)O (stereo partly shown) [phytanate]
Log2FoldChange [2]: -0.8625

CCCCCCCC/C=C\CCCCCCCC(=O)OC[C@@H](O)COP(=O)(O)OC1[C@H](O)[C@H](O)C(O)[C@H](O)[C@H]1O (stereo partly shown) [1-oleoyl-GPI (18:1)]
Log2FoldChange [1]: 0.903

C[N+](C)(C)[C@@H](Cc1cnc[nH]1)C(=O)[O-] [histidine betaine (hercynine)*]
Log2FoldChange [1]: 0.3896

CC/C=C\C/C=C\C/C=C\C/C=C\C/C=C\C/C=C\CCC(=O)O[C@H](COC(=O)CCCCCCC/C=C\CCCCCCCC)COP(=O)(O)OCCN
Log2FoldChange [1]: 0.3103
Log2FoldChange (sheet "Figure 5C"): -0.152

CCCCCC(O)CC(=O)O (stereo not shown) [3-hydroxyoctanoate]
Log2FoldChange (supplement sheet "Figure 5B"): -0.152
Log2FoldChange (sheet "Figure 5C"): 0.08406

CC(C)(O)CC(=O)O [beta-hydroxyisovalerate]
Log2FoldChange [1]: 0.4854
Log2FoldChange (sheet "Figure 5C"): 0.7049

CCC(CO)C(=O)O (stereo not shown) [3-hydroxy-2-ethylpropionate]
Log2FoldChange [1]: 0.3219

CC(=O)N[C@@H](CC[S+](C)[O-])C(=O)O (stereo partly shown) [N-acetylmethionine sulfoxide]
Log2FoldChange [1]: 0.4854
Log2FoldChange (sheet "Figure 5C"): 0.1375

O=P(O)(O)O[C@H]1O[C@H](CO)[C@@H](O)[C@H]1O [ribose 1-phosphate]
Log2FoldChange (sheet "Figure 5C"): 0.3334

CCCCCCCC/C=C\CCCCCC(O)CC(=O)OC(CC(=O)[O-])C[N+](C)(C)C (stereo not shown) [3-hydroxyoleoylcarnitine]
Log2FoldChange [1]: 0.5656
Log2FoldChange (sheet "Figure 5C"): 0.1763

COc1ccccc1OS(=O)(=O)O [guaiacol sulfate]
Log2FoldChange (supplement sheet "Figure 5B"): 0.111

CC(N[C@@H](Cc1ccc(O)cc1)C(=O)O)C(=O)O (stereo partly shown) [1-carboxyethyltyrosine]
Log2FoldChange [1]: 0.4436

O=P(O)(OC[C@H](O)CO)OC1[C@H](O)[C@H](O)C(O)[C@H](O)[C@H]1O (stereo partly shown) [glycerophosphoinositol*]
Log2FoldChange (sheet "Figure 5C"): 0.189

CCCCC/C=C\C/C=C\C/C=C\C/C=C\CCCC(=O)O[C@H](COC(=O)CCCCCCC/C=C\C/C=C\CCCCC)COP(=O)(O)OCCN
Log2FoldChange [1]: 0.5656
Log2FoldChange (sheet "Figure 5C"): 0.08406

O=C(O)CCC(O)C(=O)O (stereo not shown) [2-hydroxyglutarate]
Log2FoldChange (supplement sheet "Figure 5B"): 0.08406

CCCCCCCCCCCCCCC(=O)O [pentadecanoate (15:0)]
Log2FoldChange (supplement sheet "Figure 5B"): 0

CCCCCC(O)C(O)C/C=C\CCCCCCCC(=O)O (stereo not shown) [12,13-DiHOME]
Log2FoldChange (supplement sheet "Figure 5B"): 0.09761

O=C(O)CNC(=O)CCc1c[nH]c2ccccc12 [indolepropionylglycine]
Log2FoldChange [1]: 0.4647

CCCCC/C=C\C/C=C\CCCCCCCCCC(=O)OC(CC(=O)[O-])C[N+](C)(C)C (stereo not shown) [dihomo-linoleoylcarnitine (C20:2)*]
Log2FoldChange [1]: 0.8074
Log2FoldChange (sheet "Figure 5C"): 0.3896

C[C@H](CCC(=O)O)[C@H]1CC[C@H]2[C@@H]3[C@H](O)[C@H](O)[C@@H]4C[C@H](O)CC[C@]4(C)[C@H]3CC[C@]12C [hyocholate]
Log2FoldChange [1]: 2.4957

C[C@H](CCC(=O)O)[C@H]1CC[C@H]2[C@@H]3C[C@H](O)[C@@H]4C[C@H](O)CC[C@]4(C)[C@H]3CC[C@]12C [hyodeoxycholate]
Log2FoldChange [1]: 3.874

NCCc1ccc(O)c(OS(=O)(=O)O)c1 [dopamine 3-O-sulfate]
Log2FoldChange [1]: 0.3674

CC(C)=CCCC(C)CC(=O)O (stereo not shown) [citronellic acid]
Log2FoldChange (supplement sheet "Figure 5B"): -0.0145

Cc1ccccc1OS(=O)(=O)O [o-cresol sulfate]
Log2FoldChange [1]: 0.263

O=C(O)c1c(O)cccc1O [2,6-dihydroxybenzoic acid]
Log2FoldChange [1]: 0.3785
Log2FoldChange (sheet "Figure 5C"): 0.3674

O=Cc1c[nH]c2ccccc12 [3-formylindole]
Log2FoldChange (supplement sheet "Figure 5B"): 0.02857

Nc1cc[nH]c(=O)n1 [cytosine]
Log2FoldChange [1]: 0.2869

C[C@H](CCC(=O)O)[C@H]1CC[C@H]2[C@@H]3[C@H](O)C[C@@H]4C[C@H](O)CC[C@]4(C)[C@H]3CC[C@]12C [chenodeoxycholate]
Log2FoldChange [1]: 1.836

C[C@H](CCC(=O)O)[C@H]1CC[C@H]2[C@@H]3[C@@H](O)[C@@H](O)[C@@H]4C[C@H](O)CC[C@]4(C)[C@H]3CC[C@]12C [beta-muricholate]
Log2FoldChange [1]: 3.923
